PubChem BioAssay AID1508597 | Cure First | 2020
Shown is a random part of the about 2,100 reagents, in one setting of the screen. 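Calls flag viability under 80% in either arm, not effects specific to rucaparib; the reference for percent is not stated.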 Unmarked entries are inactive. Not stated in the record: the 100% reference.

- Aim: 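Genes whose silencing sensitises or protects ovarian cancer cells against rucaparib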 (primary screen)
- Cells: human ovarian carcinoma lines grown from tumours: OCI-P5x (papillary serous) and OCI-C5x (clear cell)
- Knock-down reagent: siRNA pool against human genes, 1.25 pmol siRNA per well
- Duration: 72 h or 96 h, depending on the cell culture
- Challenge: rucaparib 20 µM (about IC30) or vehicle, present until read-out
- Rucaparib or vehicle: Rucaparib
- Cell line: OCI-P5x (serous)
- Measurement: 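Luminescent ATP-based viability assay read 72 or 96 h after transfection, depending on culture, given as normalised percent viability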
- Scale: viability, normalised: higher = more viable cells remaining
- Rule for the call: 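a well counts as a hit if its normalised viability is under 80 percent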
- Meaning of the calls: active = viability under 80%; inactive = viability 80% or more

target gene	PubChem SID	technical replicate	viability, normalised (%)
FER (FER tyrosine kinase)	SID405527578	1	83.9
FER (FER tyrosine kinase)	SID405527578	2	89.6
FER (FER tyrosine kinase)	SID405527578	3	75.8 (active)
PIP4K2C (phosphatidylinositol-5-phosphate 4-kinase type 2 gamma)	SID405527893	1	88.3
PIP4K2C (phosphatidylinositol-5-phosphate 4-kinase type 2 gamma)	SID405527893	2	84.7
PIP4K2C (phosphatidylinositol-5-phosphate 4-kinase type 2 gamma)	SID405527893	3	81.4
DDX11 (DEAD/H-box helicase 11)	SID405528171	1	52.1 (active)
DDX11 (DEAD/H-box helicase 11)	SID405528171	2	46.1 (active)
DDX11 (DEAD/H-box helicase 11)	SID405528171	3	29.5 (active)
ALK (ALK receptor tyrosine kinase)	SID405527493	1	120
ALK (ALK receptor tyrosine kinase)	SID405527493	2	135
ALK (ALK receptor tyrosine kinase)	SID405527493	3	124
RRM2 (ribonucleotide reductase regulatory subunit M2)	SID405528260	1	52.9 (active)
RRM2 (ribonucleotide reductase regulatory subunit M2)	SID405528260	2	43.7 (active)
RRM2 (ribonucleotide reductase regulatory subunit M2)	SID405528260	3	50.8 (active)
PAN3 (poly(A) specific ribonuclease subunit PAN3)	SID405527905	1	93.7
PAN3 (poly(A) specific ribonuclease subunit PAN3)	SID405527905	2	93.9
PAN3 (poly(A) specific ribonuclease subunit PAN3)	SID405527905	3	70 (active)
POLI (DNA polymerase iota)	SID405528424	1	84
POLI (DNA polymerase iota)	SID405528424	2	102
POLI (DNA polymerase iota)	SID405528424	3	92.8
WNT7A (Wnt family member 7A)	SID405526631	1	83.4
WNT7A (Wnt family member 7A)	SID405526631	2	77.3 (active)
WNT7A (Wnt family member 7A)	SID405526631	3	72.3 (active)
CDYL (chromodomain Y like)	SID405528091	1	56.4 (active)
CDYL (chromodomain Y like)	SID405528091	2	62.7 (active)
CDYL (chromodomain Y like)	SID405528091	3	47.4 (active)
ARID3A (AT-rich interaction domain 3A)	SID405527976	1	61 (active)
ARID3A (AT-rich interaction domain 3A)	SID405527976	2	91.4
ARID3A (AT-rich interaction domain 3A)	SID405527976	3	88.3
SMUG1	SID405528394	1	86.1
SMUG1	SID405528394	2	84.2
SMUG1	SID405528394	3	97.2
CBX2 (chromobox 2)	SID405528070	1	63.6 (active)
CBX2 (chromobox 2)	SID405528070	2	91.2
CBX2 (chromobox 2)	SID405528070	3	79.2 (active)
KDM1A (lysine demethylase 1A)	SID405526927	1	56.5 (active)
KDM1A (lysine demethylase 1A)	SID405526927	2	56.5 (active)
KDM1A (lysine demethylase 1A)	SID405526927	3	57 (active)
PLCG2 (phospholipase C gamma 2)	SID405526714	1	67.4 (active)
PLCG2 (phospholipase C gamma 2)	SID405526714	2	60 (active)
PLCG2 (phospholipase C gamma 2)	SID405526714	3	64.1 (active)
ATP7A (ATPase copper transporting alpha)	SID405528002	1	66.1 (active)
ATP7A (ATPase copper transporting alpha)	SID405528002	2	71.6 (active)
ATP7A (ATPase copper transporting alpha)	SID405528002	3	72.9 (active)
KIT (KIT proto-oncogene, receptor tyrosine kinase)	SID405527937	1	74.8 (active)
KIT (KIT proto-oncogene, receptor tyrosine kinase)	SID405527937	2	71 (active)
KIT (KIT proto-oncogene, receptor tyrosine kinase)	SID405527937	3	65.7 (active)
PRPS1 (phosphoribosyl pyrophosphate synthetase 1)	SID405527520	1	86.7
PRPS1 (phosphoribosyl pyrophosphate synthetase 1)	SID405527520	2	85
PRPS1 (phosphoribosyl pyrophosphate synthetase 1)	SID405527520	3	102
RB1 (RB transcriptional corepressor 1)	SID405527230	1	26.7 (active)
RB1 (RB transcriptional corepressor 1)	SID405527230	2	35.4 (active)
RB1 (RB transcriptional corepressor 1)	SID405527230	3	34.8 (active)
PRKD1 (protein kinase D1)	SID405527901	1	103
PRKD1 (protein kinase D1)	SID405527901	2	91.4
PRKD1 (protein kinase D1)	SID405527901	3	72.5 (active)

Not a retest: entries from further up.
target gene	PubChem SID	technical replicate	viability, normalised (%)
KIT (KIT proto-oncogene, receptor tyrosine kinase)	SID405527937	3	65.7 (active)
PRPS1 (phosphoribosyl pyrophosphate synthetase 1)	SID405527520	1	86.7
PRPS1 (phosphoribosyl pyrophosphate synthetase 1)	SID405527520	2	85
PRPS1 (phosphoribosyl pyrophosphate synthetase 1)	SID405527520	3	102
